Results published in article doi:10.1101/384354.

Chains of the proteins cited; added tags and fusions are not shown.
UniProt Q9CWH6: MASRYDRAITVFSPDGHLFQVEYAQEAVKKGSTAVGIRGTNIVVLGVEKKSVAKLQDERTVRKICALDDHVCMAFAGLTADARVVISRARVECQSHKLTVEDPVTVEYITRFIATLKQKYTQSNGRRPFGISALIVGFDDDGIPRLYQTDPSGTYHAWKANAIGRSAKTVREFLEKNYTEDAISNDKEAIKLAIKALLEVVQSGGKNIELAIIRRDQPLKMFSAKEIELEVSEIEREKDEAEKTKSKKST
UniProt P56399: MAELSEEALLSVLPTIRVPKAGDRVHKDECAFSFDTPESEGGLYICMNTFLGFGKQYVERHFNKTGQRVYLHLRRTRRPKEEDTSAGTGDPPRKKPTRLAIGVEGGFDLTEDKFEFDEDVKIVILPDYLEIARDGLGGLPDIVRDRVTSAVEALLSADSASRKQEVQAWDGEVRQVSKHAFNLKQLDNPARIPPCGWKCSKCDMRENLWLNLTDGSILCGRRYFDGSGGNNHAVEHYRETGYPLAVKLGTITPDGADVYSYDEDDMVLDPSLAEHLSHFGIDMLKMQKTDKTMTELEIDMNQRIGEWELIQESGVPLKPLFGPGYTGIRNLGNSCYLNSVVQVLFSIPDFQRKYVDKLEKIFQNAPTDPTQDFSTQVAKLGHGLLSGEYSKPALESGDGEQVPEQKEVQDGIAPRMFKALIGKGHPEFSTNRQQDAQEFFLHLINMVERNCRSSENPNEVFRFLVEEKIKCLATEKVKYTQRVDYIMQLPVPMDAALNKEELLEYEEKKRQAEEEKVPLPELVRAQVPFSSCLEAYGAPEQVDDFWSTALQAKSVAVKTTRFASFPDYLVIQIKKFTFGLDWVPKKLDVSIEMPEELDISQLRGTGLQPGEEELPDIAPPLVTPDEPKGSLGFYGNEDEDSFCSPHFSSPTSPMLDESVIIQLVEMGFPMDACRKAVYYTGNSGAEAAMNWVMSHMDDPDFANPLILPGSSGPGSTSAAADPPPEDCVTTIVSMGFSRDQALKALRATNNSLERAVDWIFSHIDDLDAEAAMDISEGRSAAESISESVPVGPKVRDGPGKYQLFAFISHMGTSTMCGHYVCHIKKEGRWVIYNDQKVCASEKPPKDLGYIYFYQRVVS
UniProt P46935: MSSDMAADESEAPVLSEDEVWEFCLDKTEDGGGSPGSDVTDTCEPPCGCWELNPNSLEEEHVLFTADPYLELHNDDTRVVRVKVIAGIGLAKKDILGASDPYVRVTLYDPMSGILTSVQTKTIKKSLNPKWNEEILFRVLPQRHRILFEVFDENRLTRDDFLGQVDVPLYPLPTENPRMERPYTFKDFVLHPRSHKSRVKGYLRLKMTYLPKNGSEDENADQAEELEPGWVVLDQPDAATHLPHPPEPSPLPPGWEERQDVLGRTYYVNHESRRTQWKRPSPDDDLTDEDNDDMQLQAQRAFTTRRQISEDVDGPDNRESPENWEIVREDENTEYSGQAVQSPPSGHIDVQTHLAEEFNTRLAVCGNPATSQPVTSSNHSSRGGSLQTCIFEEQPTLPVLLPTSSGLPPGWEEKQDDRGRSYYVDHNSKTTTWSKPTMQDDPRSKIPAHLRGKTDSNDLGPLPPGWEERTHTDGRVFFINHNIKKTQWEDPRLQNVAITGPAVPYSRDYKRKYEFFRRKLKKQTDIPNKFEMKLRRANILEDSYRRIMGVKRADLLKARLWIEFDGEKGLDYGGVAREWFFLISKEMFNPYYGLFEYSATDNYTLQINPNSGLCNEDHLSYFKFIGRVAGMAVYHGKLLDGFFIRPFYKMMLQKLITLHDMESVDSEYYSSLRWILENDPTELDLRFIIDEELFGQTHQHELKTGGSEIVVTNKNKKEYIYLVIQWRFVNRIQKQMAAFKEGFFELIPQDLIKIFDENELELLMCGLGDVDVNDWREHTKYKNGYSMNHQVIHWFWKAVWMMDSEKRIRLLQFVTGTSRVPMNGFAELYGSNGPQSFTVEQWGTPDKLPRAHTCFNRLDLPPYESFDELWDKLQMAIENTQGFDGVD
UniProt Q99MV7: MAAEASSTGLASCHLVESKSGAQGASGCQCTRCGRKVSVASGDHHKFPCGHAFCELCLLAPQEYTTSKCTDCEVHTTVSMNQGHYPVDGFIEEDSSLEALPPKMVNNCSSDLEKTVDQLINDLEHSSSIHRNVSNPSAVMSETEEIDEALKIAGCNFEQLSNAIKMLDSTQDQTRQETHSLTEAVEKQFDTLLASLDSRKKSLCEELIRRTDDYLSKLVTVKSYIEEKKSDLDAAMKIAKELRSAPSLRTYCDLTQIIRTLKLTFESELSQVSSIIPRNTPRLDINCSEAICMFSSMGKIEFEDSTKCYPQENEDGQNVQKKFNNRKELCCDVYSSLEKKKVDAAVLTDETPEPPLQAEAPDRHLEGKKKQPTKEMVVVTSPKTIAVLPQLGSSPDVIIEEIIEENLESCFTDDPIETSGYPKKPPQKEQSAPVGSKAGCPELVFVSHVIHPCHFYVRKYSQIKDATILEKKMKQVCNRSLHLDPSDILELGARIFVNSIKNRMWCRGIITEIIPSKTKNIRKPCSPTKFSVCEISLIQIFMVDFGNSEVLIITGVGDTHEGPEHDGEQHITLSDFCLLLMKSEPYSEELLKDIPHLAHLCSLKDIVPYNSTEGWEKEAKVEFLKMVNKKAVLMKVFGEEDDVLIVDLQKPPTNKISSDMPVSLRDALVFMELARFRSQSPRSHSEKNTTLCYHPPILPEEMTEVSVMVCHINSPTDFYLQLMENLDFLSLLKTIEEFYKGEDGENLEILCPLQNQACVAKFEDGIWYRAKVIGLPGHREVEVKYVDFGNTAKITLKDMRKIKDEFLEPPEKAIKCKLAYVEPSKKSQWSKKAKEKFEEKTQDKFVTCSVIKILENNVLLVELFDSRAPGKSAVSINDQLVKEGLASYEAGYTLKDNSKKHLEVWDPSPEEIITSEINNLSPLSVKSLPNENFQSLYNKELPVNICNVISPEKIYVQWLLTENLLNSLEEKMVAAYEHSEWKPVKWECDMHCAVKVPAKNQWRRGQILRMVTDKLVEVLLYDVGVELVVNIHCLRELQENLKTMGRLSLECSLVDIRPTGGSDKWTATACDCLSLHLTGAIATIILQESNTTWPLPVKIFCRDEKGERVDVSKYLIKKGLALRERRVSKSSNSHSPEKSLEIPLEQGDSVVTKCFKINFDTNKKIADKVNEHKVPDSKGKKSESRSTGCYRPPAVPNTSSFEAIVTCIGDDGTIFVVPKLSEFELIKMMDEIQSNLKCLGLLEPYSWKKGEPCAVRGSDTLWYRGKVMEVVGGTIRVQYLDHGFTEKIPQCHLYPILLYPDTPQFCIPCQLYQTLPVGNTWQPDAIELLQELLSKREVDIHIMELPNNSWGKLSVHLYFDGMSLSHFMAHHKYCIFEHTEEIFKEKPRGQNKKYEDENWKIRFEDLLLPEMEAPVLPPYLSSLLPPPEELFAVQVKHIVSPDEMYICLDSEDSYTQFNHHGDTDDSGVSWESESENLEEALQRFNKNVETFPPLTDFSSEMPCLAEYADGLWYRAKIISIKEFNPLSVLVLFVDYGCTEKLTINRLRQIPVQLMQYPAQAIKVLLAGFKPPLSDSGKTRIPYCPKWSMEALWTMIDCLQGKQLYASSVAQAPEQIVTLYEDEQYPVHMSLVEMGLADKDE
UniProt P11440: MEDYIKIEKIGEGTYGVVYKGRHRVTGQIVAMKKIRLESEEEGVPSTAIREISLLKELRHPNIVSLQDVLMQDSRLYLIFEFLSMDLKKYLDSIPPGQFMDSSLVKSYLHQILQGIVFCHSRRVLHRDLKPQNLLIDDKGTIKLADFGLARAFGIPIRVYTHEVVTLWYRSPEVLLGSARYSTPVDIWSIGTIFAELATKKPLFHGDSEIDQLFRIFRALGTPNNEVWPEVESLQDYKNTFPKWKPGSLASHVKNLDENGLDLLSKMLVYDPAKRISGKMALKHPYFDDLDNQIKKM
UniProt P61407: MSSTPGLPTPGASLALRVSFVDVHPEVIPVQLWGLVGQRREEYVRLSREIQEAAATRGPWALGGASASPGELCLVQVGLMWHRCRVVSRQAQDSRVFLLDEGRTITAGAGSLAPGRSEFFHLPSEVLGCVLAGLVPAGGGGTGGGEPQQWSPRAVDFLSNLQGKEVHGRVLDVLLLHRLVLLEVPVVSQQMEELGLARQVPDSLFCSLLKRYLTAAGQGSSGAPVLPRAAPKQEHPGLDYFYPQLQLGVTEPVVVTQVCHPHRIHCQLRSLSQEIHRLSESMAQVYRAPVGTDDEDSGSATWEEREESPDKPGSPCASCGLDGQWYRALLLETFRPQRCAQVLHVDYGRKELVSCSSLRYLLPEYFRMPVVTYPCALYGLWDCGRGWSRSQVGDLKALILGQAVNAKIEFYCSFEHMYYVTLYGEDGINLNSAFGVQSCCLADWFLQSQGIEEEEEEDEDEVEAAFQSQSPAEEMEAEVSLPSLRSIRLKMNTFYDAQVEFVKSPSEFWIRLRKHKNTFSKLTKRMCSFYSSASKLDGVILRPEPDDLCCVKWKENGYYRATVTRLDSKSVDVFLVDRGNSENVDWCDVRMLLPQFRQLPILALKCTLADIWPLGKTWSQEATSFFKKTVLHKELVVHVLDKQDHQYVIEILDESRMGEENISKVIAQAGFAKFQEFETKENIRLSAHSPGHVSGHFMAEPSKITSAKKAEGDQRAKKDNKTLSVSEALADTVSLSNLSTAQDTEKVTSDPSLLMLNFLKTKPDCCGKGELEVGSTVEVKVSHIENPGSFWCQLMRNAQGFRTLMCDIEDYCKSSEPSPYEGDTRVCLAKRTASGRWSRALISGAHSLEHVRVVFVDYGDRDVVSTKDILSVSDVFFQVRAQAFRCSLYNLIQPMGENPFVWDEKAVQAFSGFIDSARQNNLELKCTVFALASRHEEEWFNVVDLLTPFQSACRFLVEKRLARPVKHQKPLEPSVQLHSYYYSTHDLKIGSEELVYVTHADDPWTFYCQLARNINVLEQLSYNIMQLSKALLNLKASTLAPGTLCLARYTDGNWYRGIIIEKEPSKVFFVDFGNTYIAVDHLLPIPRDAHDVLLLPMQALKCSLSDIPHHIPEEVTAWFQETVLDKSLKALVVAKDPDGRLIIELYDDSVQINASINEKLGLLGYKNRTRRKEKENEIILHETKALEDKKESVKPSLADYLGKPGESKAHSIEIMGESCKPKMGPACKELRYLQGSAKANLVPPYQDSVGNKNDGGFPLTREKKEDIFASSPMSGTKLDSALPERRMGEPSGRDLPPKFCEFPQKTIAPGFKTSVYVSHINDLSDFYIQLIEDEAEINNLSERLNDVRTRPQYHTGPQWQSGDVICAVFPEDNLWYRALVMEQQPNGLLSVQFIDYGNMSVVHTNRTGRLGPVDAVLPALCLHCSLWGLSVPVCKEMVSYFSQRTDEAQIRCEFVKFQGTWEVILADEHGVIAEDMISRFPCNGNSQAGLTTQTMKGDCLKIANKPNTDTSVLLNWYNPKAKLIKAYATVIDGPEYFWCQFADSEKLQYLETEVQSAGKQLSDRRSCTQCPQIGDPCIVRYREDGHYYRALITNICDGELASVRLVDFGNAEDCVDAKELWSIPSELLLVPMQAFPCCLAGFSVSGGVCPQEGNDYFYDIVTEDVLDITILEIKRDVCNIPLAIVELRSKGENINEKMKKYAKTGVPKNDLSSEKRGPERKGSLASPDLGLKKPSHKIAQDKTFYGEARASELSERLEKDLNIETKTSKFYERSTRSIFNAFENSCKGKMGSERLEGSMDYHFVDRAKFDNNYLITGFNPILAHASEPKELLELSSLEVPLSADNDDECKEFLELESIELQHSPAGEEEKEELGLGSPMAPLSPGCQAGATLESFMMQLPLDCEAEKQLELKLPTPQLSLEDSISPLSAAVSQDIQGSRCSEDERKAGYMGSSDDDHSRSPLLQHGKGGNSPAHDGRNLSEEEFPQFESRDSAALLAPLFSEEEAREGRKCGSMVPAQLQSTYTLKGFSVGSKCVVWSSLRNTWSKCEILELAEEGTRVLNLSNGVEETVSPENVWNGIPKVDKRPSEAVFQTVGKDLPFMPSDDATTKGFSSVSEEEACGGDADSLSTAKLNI
UniProt P97372: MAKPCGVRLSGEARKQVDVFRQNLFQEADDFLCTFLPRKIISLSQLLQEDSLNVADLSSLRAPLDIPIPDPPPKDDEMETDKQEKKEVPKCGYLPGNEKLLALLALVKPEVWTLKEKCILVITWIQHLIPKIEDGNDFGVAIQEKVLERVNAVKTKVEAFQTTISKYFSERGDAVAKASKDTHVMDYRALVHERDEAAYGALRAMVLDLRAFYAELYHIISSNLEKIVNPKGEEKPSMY

B1: USP47 (enzyme, UniProt Q8BY87 1-1376)
chain: MVPGEENQLVPKEDVFWRCRQNIFDEMKKKFLQIENAAEEPRVLCIIQDTTNSKTVSERITLNLPASTPVRKLFEDVANKVGYINGTFDLTRENGVTTADMAPLDHTSDKSLLDANFEPGKKNFLHLTDKDGEPPQMLLEDSNNVDDSVHDRFIGPLPREGSVASTNDYVSQNYSYSSILNKSETGYVGLVNQAMTCYLNSLLQTLFMTPEFRNALYKWEFEDSEEDPVTSIPYQLQRLFVLLQTSKKRAIETTDVTRSFGWDSSEAWQQHDVQELCRVMFDALEQKWKQTEQADLINELYQGKLKDYVRCLECGYEGWRIDTYLDIPLVIRPYGSSQAFASVEEALHAFIQPEILDGPNQYFCERCKKKCDARKGLRFLHFPYLLTLQLKRFDFDYTTMHRIKLNDRMSFPEELDMSTFIDIEDEKSPQTESCTDSGAENEGSCHSDQMSNDFSTDDAVDEGICLESSSGSEKISKPGLEKNSLMYELFSVMVHSGSAAGGHYYACIKSFSDDQWYSFNDQHVSRITQEDIKKTHGGSSGSRGYYSSAFASSTNAYMLIYRLKDPTRNAKFLEVDEYPEHIKNLVQKERELEEQEKRQREIERNTCKIKLFCLHPVKQVMMENKLEVHKDKTLKEAVEMAYKMMDLEDVIPLDCCRLVKYDEFHDYLERSYEGEEDTPMGLLLGGVKSTYMFDLLLETRKPDQIFQSYKPGEVMVKVHVVDLKAETVAAPVTVRAYLNQTVTEFKQLISKATHLPADSMRIVLERCYNDLRLLSMPSKTLKAEGFFRSNKVFVESSETVDHQAAFTDSHLWKLLDRHANTIRLFVLLPEQSPGSYSKRTAYQKAGGDSGNVDDDCERVKGPAGNLKSVDAILEESTEKLKSLSLQQQQQDGDNGDSSKSTETSDFENIESPLNERGSSTSVDNRELEQHIQTSDPENFQSEERSDSDVNNDRSTSSVDSDILSSSHSSDTLCNADSAQIPLANGLDSHSITSSRRTKANEGKKETWDTAEEDSGTDSEYDESGKSRGDMQYMYFKADPYTADEGSGEGHKWLMVHVDKRITLAAFKQHLEPFVGVLSSHFKVFRVYTSNQEFETVRLNETLSSFSDDNKITIRLGRALKKGEYRVKVCQLLVNEQEPCKFLLDAVFAKGMTVRQSKEELIPQLREQCGLDLSIDRFRLRKKTWKNPGTVFLDYHIYEEDINISSNWEVFLEVLDGVEKMKSMSQLAILTRRWRPAEMKLDPFQELVLESNSVDELREKLSEISGIPLEDIEFAKGRGTFPCDISVLDIHQDLDWNPKVSTLNVWPLYICDDGAVIFYRDRTEEVMELTDEQRNELMKKESSRLQKTGHRVTYSPRKEKALKIYLDGAPNKDVAQD
B2: CCT2 (protein, UniProt P80314 1-535)
chain: MASLSLAPVNIFKAGADEERAETARLSSFIGAIAIGDLVKSTLGPKGMDKILLSSGRDAALMVTNDGATILKNIGVDNPAAKVLVDMSRVQDDEVGDGTTSVTVLAAELLREAESLIAKKIHPQTIISGWREATKAAREALLSSAVDHGSDEARFWQDLMNIAGTTLSSKLLTHHKDHFTKLAVEAVLRLKGSGNLEAIHVIKKLGGSLADSYLDEGFLLDKKIGVNQPKRIENAKILIANTGMDTDKIKIFGSRVRVDSTAKVAEIEHAEKEKMKEKVERILKHGINCFINRQLIYNYPEQLFGAAGVMAIEHADFAGVERLALVTGGEIASTFDHPELVKLGSCKLIEEVMIGEDKLIHFSGVALGEACTIVLRGATQQILDEAERSLHDALCVLAQTVKDPRTVYGGGCSEMLMAHAVTQLANRTPGKEAVAMESFAKALRMLPTIIADNAGYDSADLVAQLRAAHSEGHITAGLDMKEGTIGDMAVLGITESFQVKRQVLLSAAEAAEVILRVDNIIKAAPRKRVPDHHPC
B3: TRIM36 (enzyme, UniProt Q80WG7 1-729)
chain: MSESEEISEFGYIMELLAKGKVTIKNIEKELICPACKELFTHPLILPCQHSVCHKCVKELLLSLDDSFNDVASDSSNQSSPRLRLTSPSMDKIDKINRPGWKRNSLTPRPTTFPCPGCEHDVDLGERGVSGLFRNFTLETIVERYRQAARAATAIMCDLCKPPPQESTKSCMDCSASYCNECFKIYHPWGTVKAQHEYVGPTTNFRPKVLMCPEHETERINMYCELCRRPVCHLCKLGGNHSNHRVTTMSSAYKTLKEKLSKDIDFLIGKESQVKSQISELNLLMKETECNGERAKEEALAHFEKLFEILEDRKSSVLKAIDASKKLRLDKFHTQMEEYQGLLENNGLVGYAQEVLKETDQSCFVQTAKQLHLRIQKATESLKSFRPAAQASFEDYVVNISKQTEVLGELSFFSSGIDIPEINEEQSKVYNNALIDWHHPEKDKADSYVLEYRKINRDEEMISWNEIEVHGTSKVVSNLESNSPYAFRVRAYRGSICSPCSRELILHTPPAPVFSFLFDEKCGYNTEHLLLNLKRDRVESRAGFNVLLAAERIQVGHYTSLDYIIGDVGVTKGKHFWACRVEPYSYLVKVGVASSDKLQEWLRSPRDAASPRYEQDSGHDSGSEDACFDSSQPFTLVTIGMKKFFIPKSPTSSNEPENRVLPMPTSIGIFLDCDKGKVSFYDMDHMKCLYERQVDCSHTMYPAFALMGSGGIQLEEAITAKYLEYEEDV
B4: SYCP1 (endogenous) (protein, UniProt Q62209 1-993)
chain: MEKQKPFTLFVPPRLSSSQVSAVKPQTAGGDSNYFKTANKCTEGDFGVPFTMSSRENIDKDPAFQKLSILPMLEQVANSGSCHYQEGVNDSDFENSEPMSRLYSKLYKEAEKIKKWKVSIESELKQKENKLQENRKIIEAQRKAIQELQFENEKVSLKLEEEIQENKDLIKENNATIHWCNLLKETCARSAEKTNKYEYEREETRQVYVDLNSNIEKMILAFEELRVQAENARLEMHFKLKEDHEKIQHLEEEYQKEVNNKENQVSELLIQSAEKENKMKDLTFLLEESRDKANQLEEKTKLQDENLKELSEKKDHLTSELEDIKMSMQRSMSTQKALEEDLQIATKTISQLTEVKEAQMEELNKAKTTHSFVVTELKATTCTLEELLRTEQQRLEKNEDQLKLITVELQKKSNELEEMTKFKNNKEVELEELKNILAEDQKLLDEKKQVEKLAEELQEKEQELTFLLETREKEVHDLQEQVTVTKTSEQHYLKQVEEMKTELEKEKLKNTELTASCDMLLLENKKFVQEASDMALELKKHQEDIINCKKQEERLLKQIENLEEKEMHLRDELESVRKEFIQQGDEVKCKLDKSEENARSIECEVLKKEKQMKILESKCNNLKKQVENKSKNIEELHQENKTLKKKSSAEIKQLNAYEIKVSKLELELESTKQRFEEMTNNYQKEIENKKISEGKLLGEVEKAKATVDEAVKLQKEIDLRCQHKIAEMVALMEKHKHQYDKIVEERDSELGLYKNREQEQSSAKIALETELSNIRNELVSLKKQLEIEKEEKEKLKMAKENTAILKDKKDKKIQASLLESPEATSWKFDSKTTPSQNISRLSSSMDSGKSKDNRDNLRASAKSILPTTVTKEYTVKTPTKKSIYQRENKYIPTGGSNKKRKTAFEFDVNSDSSETADLLSLVSEEDVSNRLYDNNPPDSHLLVKTPKQTPLSLSTPASFMKFGSLKKMREDRWTTIAKIDRKRRLKEAEKLFS
B5: TRIP13 (endogenous) (protein, UniProt Q3UA06 1-432)
chain: MDEAVGDLKQALPCVAESPAVHVEVLQRSGSTAKKEDIKSSVYRLLNRHNIVFGDYVWTEFDDPFLSRNVQSVSIVDTELKAKDPQPIDLSACTIALHIFQLNEEGPSSENLDEETENIIAASHWVLPAAEFHGLWDSLVYDVEVKSHLLDYVMTTVLFSDKNVDSNLITWNRVVLLHGPPGTGKTSLCKALAQKLTIRLSSRYRYGQLIEINSHSLFSKWFSESGKLVTKMFQKIQDLIDDKEALVFVLIDEVESLTAARNACRAGAEPSDAIRVVNAVLTQIDQIKRHSNVVILTTSNITEKIDVAFVDRADIKQYIGPPSAAAIFKIYLSCLEELMKCQIIYPRQQLLTLRELEMIGFIENNVSKLSLLLSEISRKSEGLSGRVLRKLPFLAHALYIQAPSVTIEGFLQALSLAVDKQFEEKKKLSAYV
B6: SMC6 (protein, UniProt Q924W5 1-1097)
chain: MAKRKEENFCSPENAKRPRQEELEDFDKDGDEDECTISFTNGTSTLTAAEVGIIESIQLRNFMCHSMLGPFKFGSNVNFVVGNNGSGKSAVLTALIVGLGGKAVATNRGSSLKGFVKAGQNSADISITLRNRGDDAFRANVYGDSIVVQQHISVDGSRSYKLKSEKGTVVSTRKEELIAILDHFNIQVDNPVSVLTQEMSKQFLQSKNEGDKYKFFMKATQLEQMKEDYSYIMETKERTKEQINQGEERLTELKRQCLEKEERFQNIAGLSTMKTNLEYLKHEMAWAVVNEIEKQLNAIRDNIKIGEERAAKLDRKMEEQQVRLNDAEKKYKDIQDKLEKISEETNARAPECMALKTDVIARTRAFNDAEVLYNRSLNEYKALKKDGEQLCKRIEELKKSTDQSLEPERLERQKRICWLKEKVKALQDQEHTVNQEAEQFEQAIEKDKQEHGRVRKEDIEVRHALNYNQRQLKELKDSKTDRLKRFGPHVPALLEAIDDAYRRRQFTHKPIGPLGACIHLRDPELALAIESCLKGLLQAYCCHNHADERVLQSLMKKFYPPGTSRPQIIVSEFRDEVYDVRLRAAYHPEFPTVLTALEIDNAVVANSLIDMRSIETVLLIKNNSVARAVMQSQKPPKNCREAFTADGDQVFAGRYYSSESTRPKFLSRDVDSEISDLETEIENKKGHIITLQQRLSALEKDIKRNEELLKRCQLHYKEIKMKIRKNISEIRELENIEEHQSVDIATLEDEAEENKIKMQMVEKNMEQQKENMENLKSLKIEAENKYDTIKLKINQLSELADPLKDELNLADSEVDSQKRGKQHYEDKQKEHLDTLNKKRRELDMKEKELQEKMSQARQICPERIEVKKSASILDKEINRLRQKIQAEHASHGDREEIMKQYQEARETYLDLDNKVRTLRRFIKLLEEIMTHRYKTYQQFRRCLTLRCKLYFDNLLSQRAYCGKMNFDHKNETLSITVQPGEGNKASFNDMRALSGGERSFSTVCFILSLWSIAESPFRCLDEFDVYMDMVNRRIAMDMILKMADSQRFRQFILLTPQSMSSLPSSKLIRILRMSDPERGQTTLPFRPVTQEEDDSAS

target: PSMA8 (testis-specific α4s subunit of the spermatoproteasome) (mouse (endogenous in testis)) (UniProt Q9CWH6); test: affinity purification with mass spectrometry

Question: For “USP5 (from UniProt P56399 1-858) (enzyme)”, which binding is on record?
Answer: binds

Question: For “NEDD4 (from UniProt P46935 1-887) (enzyme)”, which binding is on record?
Answer: binds

Question: Which binding does the source give for “USP14 (from UniProt Q9JMA1 1-493) (enzyme)” here?
Answer: binds

Question: With “RAD18 (from UniProt Q9QXK2 1-509) (enzyme)” as the molecule, how does the binding read?
Answer: binds

Question: Which binding does the source give for RNF17 (from UniProt Q99MV7 1-1640) here?
Answer: binds

Question: How did the binding turn out when HSP70a2 (from UniProt P17156 1-633) was run?
Answer: binds

Question: With “USP9X (from UniProt P70398 1-2559) (enzyme)” as the molecule, how does the binding read?
Answer: binds

Question: How did the binding turn out when “CDK1 (cyclin dependent kinase 1) (endogenous) (from UniProt P11440 1-297) (enzyme)” was run?
Answer: binds

Question: With “TRIP12 (from UniProt G5E870 1-2025) (enzyme)” as the molecule, how does the binding read?
Answer: binds

Question: Which binding does the source give for TDRD6 (from UniProt P61407 1-2134) here?
Answer: binds

Question: Which binding does the source give for SMC4 (from UniProt Q8CG47 1-1286) here?
Answer: binds

Question: With CCT6b (from UniProt Q61390 1-531) as the molecule, how does the binding read?
Answer: binds

Question: “USP34 (from UniProt Q6ZQ93 1-3582) (enzyme)” was tested. Which binding did it give?
Answer: binds

Question: Which binding does the source give for “PA28β (PSME2) (from UniProt P97372 1-239)” here?
Answer: no binding

Question: How did the binding turn out when B1 was run?
Answer: binds

Question: How did the binding turn out when B2 was run?
Answer: binds

Question: Which binding does the source give for B3 here?
Answer: binds

Question: With B4 as the molecule, how does the binding read?
Answer: binds

Question: For B5, which binding is on record?
Answer: binds

Question: For B6, which binding is on record?
Answer: binds

These are yes or no findings as the source states them, for the method shown. Binding seen in cells or lysates may run through a third protein. Here binding means that the protein was enriched with, or labelled near, the bait; the list need not be complete. A no says only that the protein was not detected with the bait.
